Tests used:
A549 cells = test: Intracellular distribution, confocal colocalization; type: cell-based, human; settings: 1 μM, 1 h
[1] = general procedure: Fmoc solid-phase peptide synthesis; aminomethyl ChemMatrix (0.69 mmol/g) with Fmoc-Rink-amide linker; DIC/Oxyma; settings: whole synthesis, 220 nm

For COC(=O)/C=C/c1ccc(-c2nccc3c4ccccc4n(C)c23)nc1.[Cl-].[Ir+3].[c-]1ccccc1-c1ccccn1.[c-]1ccccc1-c1ccccn1 [Ir-Me], the “Pearson correlation coefficient (PCC) with LysoTracker Green DND-26” value (A549 cells; lysosomes) was 0.599 and the “Pearson correlation coefficient (PCC) with MitoView Green” value (A549 cells; mitochondria) was 0.832.

In the case of “Ir-Gln-Arg-Leu-Gly-Asn-Gln-Trp-Ala-Val-Gly-His-Leu-Leu-NH 2 [Ir-BN]”, the “final HPLC purity” value [1] is reported as over 99%.

— paper PMC11483813 (Inorganic Chemistry, 2024)
